Laboratory results as given in publication PMC4664969.
Results are given in words; binding and its absence hold for the method and conditions named. In cells and extracts the contact can be indirect. A result given as binding can be weak or reduced; the word gives no strength. Where a sequence is shown, tags or fusion partners need not be part of it.

Molecular target: T1, Myc-tagged glucokinase regulatory protein (GKRP), wild type (human) (UniProt Q14397)
T1 sequence: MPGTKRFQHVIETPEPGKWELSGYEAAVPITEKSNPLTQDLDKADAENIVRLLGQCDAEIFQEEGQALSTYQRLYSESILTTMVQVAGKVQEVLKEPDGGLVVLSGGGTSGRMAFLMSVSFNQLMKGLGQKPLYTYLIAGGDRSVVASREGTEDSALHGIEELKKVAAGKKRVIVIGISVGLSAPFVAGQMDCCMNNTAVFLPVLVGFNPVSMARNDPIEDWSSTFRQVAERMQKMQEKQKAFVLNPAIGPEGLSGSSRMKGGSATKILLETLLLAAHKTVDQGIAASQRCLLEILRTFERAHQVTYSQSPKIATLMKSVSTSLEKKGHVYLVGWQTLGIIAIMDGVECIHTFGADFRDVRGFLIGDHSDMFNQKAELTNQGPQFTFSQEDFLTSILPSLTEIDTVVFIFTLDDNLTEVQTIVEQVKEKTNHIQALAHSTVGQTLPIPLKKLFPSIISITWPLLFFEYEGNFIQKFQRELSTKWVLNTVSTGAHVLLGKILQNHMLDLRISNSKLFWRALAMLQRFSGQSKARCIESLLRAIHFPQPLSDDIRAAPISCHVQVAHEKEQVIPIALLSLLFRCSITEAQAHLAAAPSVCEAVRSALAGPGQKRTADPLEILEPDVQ
Assay: co-IP; HeLa cells cotransfected with the expression plasmids, lysed after 36 h (20 mM HEPES pH 7.4, 0.5% NP-40, 150 mM NaCl, 0.25% deoxycholate, 1 mM EDTA, TSA, NAM); 1 ug antibody overnight, protein G agarose 2 h at 4 C; immunoblot (GK-GKRP: IP anti-Myc or anti-V5, blot anti-His or anti-Myc)

binding: binds
Substance: FLAG-tagged SIRT3 (enzyme)
